The list does not hold the whole screen: it gathers tests that were run many times, whatever their T/C, doses with no T/C, and many T/C values between a quarter and a half above the control. Other doses and runs of a compound stand elsewhere. T/C gives the treated animals as a percentage of the vehicle group. Schedules are NCI's codes, taken here to give the interval after Q, in days (D) or hours (H), and the number of doses after X. Some doses have a count of surviving animals in place of a T/C: the source holds a T/C of zero for them, seemingly a mark for toxic or unscored doses. Some doses without a T/C left all or most animals alive at the check, yet need not have been tolerated: the source hardly ever lists a survival T/C far under the control, and the zero likely stands for such cases as well. Survivors were counted at the toxicity check, usually on the fifth day, unless a day is given; later deaths do not show. Some doses were run more than once; the values are given in rising order. Where survival is the endpoint, this PubChem deposit counts one and a half times the control or more as active, and values a quarter to a half above the control carry no call in these data; other NCI protocols may use other cut-offs. Some T/C values carry the count of animals alive at the toxicity check (mostly the fifth day); without a count, all were alive then.
Test system: BDF1 mice, s.c. Lewis lung carcinoma, T/C %
Experiment: NCI In Vivo Anticancer Drug Screen. Data for tumor model Lewis Lung Carcinoma (subcutaneous) in B6D2F1 (BDF1) mice
Description: The antitumor activity of compounds was measured in mice bearing transplantable tumors. Survival or tumor size were measured and the results are expressed as the measurement made in the treated group (T) divided by the measurement made in the vehicle treated control group (C). The tumor model used in this assay is Lewis Lung Carcinoma (subcutaneous) in B6D2F1 (BDF1) mice

[1] = T/C endpoint: median survival time, dose: 25.0 mg/kg/injection, schedule: Q01DX009 (ip), vehicle: Klucel (hydroxypropylcellulose) (HPC), higher T/C = longer survival
[2] = T/C endpoint: median survival time, dose: 50.0 mg/kg/injection, schedule: Q01DX009 (ip), vehicle: Klucel (hydroxypropylcellulose) (HPC), higher T/C = longer survival
[3] = T/C endpoint: median survival time, dose: 100.0 mg/kg/injection, schedule: Q01DX009 (ip), vehicle: Klucel (hydroxypropylcellulose) (HPC), higher T/C = longer survival
[4] = T/C endpoint: median survival time, dose: 200.0 mg/kg/injection, schedule: Q01DX009 (ip), vehicle: Klucel (hydroxypropylcellulose) (HPC), higher T/C = longer survival
[5] = T/C endpoint: mean tumor weight, dose: 80.0 mg/kg/injection, schedule: Q01DX011 (ip), vehicle: saline, higher T/C = larger tumour
[6] = T/C endpoint: median survival time, dose: 50.0 mg/kg/injection, schedule: Q01DX001 (ip), vehicle: Klucel (hydroxypropylcellulose) (HPC), higher T/C = longer survival
[7] = T/C endpoint: median survival time, dose: 160.0 mg/kg/injection, schedule: Q01DX001 (ip), vehicle: Klucel (hydroxypropylcellulose) (HPC), higher T/C = longer survival

## CC(C)=CCCC(C)CCO (configuration not stated)
T/C endpoint: mean tumor weight, dose: 200.0 mg/kg/injection, schedule: Q01DX011 (ip), vehicle: carboxymethylcellulose (CMC), higher T/C = larger tumour
  survivor count: 2 of 6
T/C endpoint: mean tumor weight, dose: 400.0 mg/kg/injection, schedule: Q01DX011 (ip), vehicle: carboxymethylcellulose (CMC), higher T/C = larger tumour
  survivor count: 2 of 6

## NC(=O)c1nn(C2OC(CO)C(O)C2O)c2ncnc(N)c12 (configuration not stated)
[1]
  survivor count: 10 of 10
[2]
  survivor count: 5 of 10
[3]
  survivor count: 0 of 10
[4]
  survivor count: 0 of 10

## CN(N=O)C(=O)N[C@@H](C=O)[C@@H](O)[C@H](O)[C@H](O)CO
T/C endpoint: mean tumor weight (est.), dose: 160.0 mg/kg/injection, schedule: Q01DX009 (ip), vehicle: water, higher T/C = larger tumour
  survivor count: 4 of 8
T/C endpoint: median survival time, dose: 80.0 mg/kg/injection, schedule: Q01DX009 (ip), vehicle: water, higher T/C = longer survival
  survivor count: 8 of 8
T/C endpoint: median survival time, dose: 160.0 mg/kg/injection, schedule: Q01DX009 (ip), vehicle: water, higher T/C = longer survival
  survivor count: 4 of 8
T/C endpoint: median survival time, dose: 320.0 mg/kg/injection, schedule: Q01DX001 (ip), vehicle: other, higher T/C = longer survival
  survivor count: 10 of 10
T/C endpoint: median survival time, dose: 640.0 mg/kg/injection, schedule: Q01DX001 (ip), vehicle: other, higher T/C = longer survival
  survivor count: 2 of 10 and 3 of 10
T/C endpoint: median survival time, dose: 640.0 mg/kg/injection, schedule: Q01DX001 (ip), vehicle: saline, higher T/C = longer survival
  survivor count: 0 of 10

## C=C1c2[nH]c3ccccc3c2CN2CCC1/C(=C/C)C2 (configuration not stated)
T/C endpoint: mean tumor weight, dose: 0.25 mg/kg/injection, schedule: Q01DX011 (ip), vehicle: saline, evaluated on day 12, higher T/C = larger tumour
  T/C: 125 % of control

## CC1CCOS(=O)O1 (configuration not stated)
[5]
  survivor count: 0 of 6

## O=NN(CCCl)C(=O)NC1CCCCC1
T/C endpoint: median survival time, dose: 0.12 mg/kg/injection, schedule: Q08HX024 (ip), vehicle: Klucel (hydroxypropylcellulose) (HPC), higher T/C = longer survival
  T/C: 128 % of control [9 of 10 alive]
T/C endpoint: median survival time, dose: 1.0 mg/kg/injection, schedule: Q01DX009 (ip), vehicle: Klucel (hydroxypropylcellulose) (HPC), higher T/C = longer survival
  T/C: 133 % of control
T/C endpoint: median survival time, dose: 1.0 mg/kg/injection, schedule: Q08HX024 (ip), vehicle: Klucel (hydroxypropylcellulose) (HPC), higher T/C = longer survival
  survivor count: 10 of 10
T/C endpoint: median survival time, dose: 2.0 mg/kg/injection, schedule: Q01DX009 (ip), vehicle: Klucel (hydroxypropylcellulose) (HPC), higher T/C = longer survival
  T/C: 142 % of control
T/C endpoint: median survival time, dose: 4.0 mg/kg/injection, schedule: Q01DX009 (ip), vehicle: Klucel (hydroxypropylcellulose) (HPC), higher T/C = longer survival
  T/C: 86, 107, 108, 117 % of control
T/C endpoint: median survival time, dose: 8.0 mg/kg/injection, schedule: Q01DX009 (ip), vehicle: Klucel (hydroxypropylcellulose) (HPC), higher T/C = longer survival
  T/C: 90, 110, 157, 182 % of control
T/C endpoint: median survival time, dose: 16.0 mg/kg/injection, schedule: Q01DX009 (ip), vehicle: Klucel (hydroxypropylcellulose) (HPC), higher T/C = longer survival
  T/C: 86, 87 [9 of 10 alive], 103, 131 % of control
T/C endpoint: median survival time, dose: 16.0 mg/kg/injection, schedule: Q01DX009 (ip), vehicle: saline with Tween-80, higher T/C = longer survival
  T/C: 141 % of control
T/C endpoint: median survival time, dose: 20.0 mg/kg/injection, schedule: Q01DX001 (ip), vehicle: Klucel (hydroxypropylcellulose) (HPC), higher T/C = longer survival
  survivor count: 10 of 10
T/C endpoint: median survival time, dose: 25.0 mg/kg/injection, schedule: Q01DX001 (ip), vehicle: Klucel (hydroxypropylcellulose) (HPC), higher T/C = longer survival
  T/C: 136 % of control
T/C endpoint: median survival time, dose: 25.0 mg/kg/injection, schedule: Q01DX001 (ip), vehicle: saline with Tween-80, higher T/C = longer survival
  T/C: 135 % of control
T/C endpoint: median survival time, dose: 32.0 mg/kg/injection, schedule: Q01DX009 (ip), vehicle: Klucel (hydroxypropylcellulose) (HPC), higher T/C = longer survival
  survivor count: 8 of 10 and 9 of 9
T/C endpoint: median survival time, dose: 32.0 mg/kg/injection, schedule: Q01DX009 (ip), vehicle: saline with Tween-80, higher T/C = longer survival
  T/C: 125 % of control
T/C endpoint: median survival time, dose: 33.0 mg/kg/injection, schedule: Q10DX002 (ip), vehicle: carboxymethylcellulose (CMC), higher T/C = longer survival
  survivor count: 10 of 10 on day 15
T/C endpoint: median survival time, dose: 40.0 mg/kg/injection, schedule: Q01DX001 (ip), vehicle: Klucel (hydroxypropylcellulose) (HPC), evaluated on day 14, higher T/C = longer survival
  T/C: 92 % of control [6 of 8 alive]
T/C endpoint: median survival time, dose: 40.0 mg/kg/injection, schedule: Q01DX001 (ip), vehicle: Klucel (hydroxypropylcellulose) (HPC), evaluated on day 60, higher T/C = longer survival
  T/C: 95, 109, 117 % of control
[6]
  T/C: 147 % of control
  survivor count: 0 of 10
T/C endpoint: median survival time, dose: 50.0 mg/kg/injection, schedule: Q01DX001 (ip), vehicle: saline with Tween-80, higher T/C = longer survival
  T/C: 135 % of control
T/C endpoint: median survival time, dose: 80.0 mg/kg/injection, schedule: Q01DX001 (ip), vehicle: Klucel (hydroxypropylcellulose) (HPC), higher T/C = longer survival
  survivor count: 10 of 10
T/C endpoint: median survival time, dose: 100.0 mg/kg/injection, schedule: Q01DX001 (ip), vehicle: Klucel (hydroxypropylcellulose) (HPC), higher T/C = longer survival
  survivor count: 0 of 10 and 9 of 10
[7]
  T/C: 127 % of control
  survivor count: 10 of 10

## O=c1cc(-c2ccc(O)cc2)oc2c(O)c(O)c(O)c(O)c12
T/C endpoint: mean tumor weight, dose: 400.0 mg/kg/injection, schedule: Q01DX011 (ip), vehicle: saline, higher T/C = larger tumour
  survivor count: 0 of 6

## Nc1c(Cl)c(Cl)nc(C(=O)O)c1Cl
T/C endpoint: median survival time, dose: 400.0 mg/kg/injection, schedule: Q02DX009 (ip), vehicle: Klucel (hydroxypropylcellulose) (HPC), higher T/C = longer survival
  survivor count: 7 of 10
T/C endpoint: median survival time, dose: 400.0 mg/kg/injection, schedule: Q02DX009 (ip), vehicle: distilled water + Tween-80, higher T/C = longer survival
  survivor count: 8 of 10

## CS(C)=O
T/C endpoint: median survival time, dose: 1.5 grams/kg/injection, schedule: Q01DX009 (ip), vehicle: saline, higher T/C = longer survival
  survivor count: 4 of 10

## CN(CCCOS(C)(=O)=O)CCCOS(C)(=O)=O
[5]
  survivor count: 3 of 6

## CN(C)CC(Cl)CCl (configuration not stated)
T/C endpoint: median survival time, dose: 400.0 mg/kg/injection, schedule: Q01DX009 (ip), vehicle: saline, higher T/C = longer survival
  survivor count: 7 of 10

## OC(CBr)C(O)C(O)C(O)CBr (configuration not stated)
T/C endpoint: mean tumor weight (est.), dose: 600.0 mg/kg/injection, schedule: Q01DX009 (ip), vehicle: Klucel (hydroxypropylcellulose) (HPC), higher T/C = larger tumour
  survivor count: 3 of 8
T/C endpoint: mean tumor weight, dose: 50.0 mg/kg/injection, schedule: Q01DX011 (ip), vehicle: saline, evaluated on day 12, higher T/C = larger tumour
  T/C: 143 % of control
T/C endpoint: median survival time, dose: 75.0 mg/kg/injection, schedule: Q01DX009 (ip), vehicle: Klucel (hydroxypropylcellulose) (HPC), higher T/C = longer survival
  T/C: 127 % of control
T/C endpoint: median survival time, dose: 300.0 mg/kg/injection, schedule: Q01DX009 (ip), vehicle: Klucel (hydroxypropylcellulose) (HPC), higher T/C = longer survival
  survivor count: 6 of 8
T/C endpoint: median survival time, dose: 600.0 mg/kg/injection, schedule: Q01DX009 (ip), vehicle: Klucel (hydroxypropylcellulose) (HPC), higher T/C = longer survival
  survivor count: 3 of 8
T/C endpoint: median survival time, dose: 800.0 mg/kg/injection, schedule: Q01DX009 (ip), vehicle: saline, higher T/C = longer survival
  survivor count: 9 of 10

## CCCCCC[C@H]([C@H](C)O)n1cnc2c(N)ncnc21
[4]
  survivor count: 3 of 10

## O=C(CCCN1CCC(O)(c2cccc(C(F)(F)F)c2)CC1)c1ccc(F)cc1
T/C endpoint: median survival time, dose: 100.0 mg/kg/injection, schedule: Q04DX003 (ip), vehicle: saline with Tween-80, higher T/C = longer survival
  survivor count: 2 of 10

## N[C@H](C(=O)O)[C@@H]1CC(Cl)=NO1
T/C endpoint: median survival time, dose: 1.4 mg/kg/injection, schedule: Q01DX009 (ip), vehicle: saline, higher T/C = longer survival
  T/C: 126 % of control
T/C endpoint: median survival time, dose: 2.1 mg/kg/injection, schedule: Q01DX009 (ip), vehicle: saline, higher T/C = longer survival
  T/C: 143 % of control
T/C endpoint: median survival time, dose: 3.2 mg/kg/injection, schedule: Q01DX009 (ip), vehicle: saline, higher T/C = longer survival
  T/C: 143 % of control
T/C endpoint: median survival time, dose: 27.0 mg/kg/injection, schedule: Q04DX003 (ip), vehicle: saline, higher T/C = longer survival
  T/C: 126 % of control
T/C endpoint: median survival time, dose: 40.0 mg/kg/injection, schedule: Q01DX001 (ip), vehicle: saline, higher T/C = longer survival
  T/C: 126 % of control
T/C endpoint: median survival time, dose: 40.0 mg/kg/injection, schedule: Q04DX003 (ip), vehicle: saline, higher T/C = longer survival
  T/C: 131 % of control
T/C endpoint: median survival time, dose: 60.0 mg/kg/injection, schedule: Q01DX001 (ip), vehicle: saline, higher T/C = longer survival
  T/C: 139 % of control
T/C endpoint: median survival time, dose: 60.0 mg/kg/injection, schedule: Q04DX003 (ip), vehicle: saline, higher T/C = longer survival
  T/C: 141 % of control
T/C endpoint: median survival time, dose: 90.0 mg/kg/injection, schedule: Q01DX001 (ip), vehicle: saline, higher T/C = longer survival
  T/C: 136 % of control
T/C endpoint: median survival time, dose: 120.0 mg/kg/injection, schedule: Q04DX002 (ip), vehicle: saline, evaluated on day 6, higher T/C = longer survival
  T/C: 135 % of control
T/C endpoint: median survival time, dose: 120.0 mg/kg/injection, schedule: Q04DX002 (ip), vehicle: saline, evaluated on day 36, higher T/C = longer survival
  T/C: 131 % of control

## O=NN(CCCl)C(=O)Nc1cc2c3ccccc3ccc2c2ccccc12
[1]
  survivor count: 10 of 10
[2]
  survivor count: 10 of 10
[3]
  survivor count: 10 of 10
[4]
  survivor count: 9 of 10
T/C endpoint: median survival time, dose: 400.0 mg/kg/injection, schedule: Q01DX009 (ip), vehicle: Klucel (hydroxypropylcellulose) (HPC), higher T/C = longer survival
  survivor count: 9 of 10

From PubChem BioAssay AID270 (DTP/NCI, 2004)
